# PubChem BioAssay AID686943, Drosophila RNAi Screening Center, 2013
# Aim: 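Fly genes whose loss alters ERK activation after insulin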 (primary screen)
# System: Drosophila S2R+ haemocyte-like cells expressing YFP-tagged ERK (Rolled)
# Reagents: long dsRNA against Drosophila genes
# Conditions: insulin stimulation versus unstimulated cells; dose and duration not given
# Detection: 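Antibody staining for doubly phosphorylated ERK divided by ERK-YFP signal, as plate z-scores, in insulin-treated and untreated cells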
# Scale: replicate 1, z-score of dpERK with insulin and replicate 2, z-score of dpERK with insulin: higher = more active ERK per ERK-YFP after insulin; replicate 1, z-score of dpERK under basal conditions: higher = more basal active ERK per ERK-YFP; replicate 1, z-score of ERK-YFP with insulin: higher = more YFP-tagged ERK signal
# In all, the deposit lists about 23,000 reagents; shown is a random part of those with a known target gene and a result. 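Extra replicates exist only for a retested subset of genes; insulin dose and duration not given; both raised and lowered dpERK matter.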 Not given: the amount of reagent, the time to read-out.
"replicate 1, z-score of dpERK with insulin","replicate 2, z-score of dpERK with insulin","replicate 1, z-score of dpERK under basal conditions","replicate 1, z-score of ERK-YFP with insulin",gene,dsRNA
-0.68,-0.65,-0.35,0.66,asrij,DRSC04175
0.38,1.08,1.05,1.38,NimA,DRSC01353
0.57,0.43,0.84,-0.65,NimA,DRSC22170
0.74,0.7,-0.6,-0.24,CG11123,DRSC06040
0.36,1.01,0.11,0,CG9003,DRSC07317
-0.18,-0.66,0.45,-0.09,CG5139,DRSC00681
0.14,0.29,1.21,0.23,lbk,DRSC07178
0.6,0.14,-0.47,1.26,intr,DRSC14528
0.25,-0.99,-0.59,0.24,CG14397,DRSC02381
0.37,0.54,0.02,0.21,CG14949,DRSC08408
0.6,0,-1.06,-0.22,CG11099,DRSC06034
-0.28,-0.46,-0.81,-0.15,CG34057,DRSC08375
-0.81,0.8,-0.33,-0.92,CG31103,DRSC22324
-0.41,0,0.08,0.72,CG6763,DRSC16110
-0.18,0.44,0.81,0.46,CG17528,DRSC07761
-0.35,-0.19,-0.27,-1.34,lncRNA:CR30009,DRSC22952
0.49,-0.23,0.57,-0.04,Fis1,DRSC07772
-0.35,0.3,1.4,0.44,CG9010,DRSC07320
0.38,1.13,0.49,-0.52,CG12691,DRSC17880
-0.34,-0.18,0.47,0.39,CG10750,DRSC02105
-0.7,-1.53,-1.37,0.3,jub,DRSC19367
0.08,-1.48,-0.23,0.23,CG43335,DRSC15764
0.33,0.47,-0.81,-2.38,CG43335,DRSC22671
-1.08,-1.27,-2,-0.78,Tsp47F,DRSC07325
0.02,-0.07,0.64,0.4,CG14377,DRSC14837
-1.68,-0.24,-0.35,1.01,wam,DRSC15171

Next part; the last 5 above are carried over.
"replicate 1, z-score of dpERK with insulin","replicate 2, z-score of dpERK with insulin","replicate 1, z-score of dpERK under basal conditions","replicate 1, z-score of ERK-YFP with insulin",gene,dsRNA
0.08,-1.48,-0.23,0.23,CG43335,DRSC15764
0.33,0.47,-0.81,-2.38,CG43335,DRSC22671
-1.08,-1.27,-2,-0.78,Tsp47F,DRSC07325
0.02,-0.07,0.64,0.4,CG14377,DRSC14837
-1.68,-0.24,-0.35,1.01,wam,DRSC15171
0.54,0.91,0.99,-0.3,Nop17l,DRSC06556
0.39,0.87,-0.11,0.47,FASN2,DRSC00167
0.57,0.39,-0.27,0.18,FASN2,DRSC00610
-0.29,0.79,0.44,0.23,mus81,DRSC18180
0.04,1.64,0,0.27,mus81,DRSC18644
-0.79,-0.8,0.19,0.51,Map205,DRSC16732
0.63,1.01,-0.06,0.1,CG14153,DRSC10155
0.62,0.37,-0.45,-0.01,CG14153,DRSC22595
0.72,0.33,0.17,-0.02,CG32548,DRSC19627
2.06,1.12,-0.18,0.04,CG32548,DRSC19982
-0.58,-0.64,-0.28,0.26,speck,DRSC04608
0.75,0.65,-0.21,-0.86,Rtnl2,DRSC12609
0.54,0.4,-0.73,-1.55,Rtnl2,DRSC21655
0.61,0.11,0.53,0.24,Cpr92F,DRSC15819
0.52,1.54,3.32,0.02,Arl1,DRSC09667
-0.9,-0.37,-0.54,-0.16,CG1288,DRSC12538
-0.45,0.47,0.37,1.77,Ncc69,DRSC10412
2.72,0.69,3.08,-0.61,Ncc69,DRSC10413
0.45,-0.2,0,0.16,Acsx1R,DRSC14339
0.86,0.01,-0.01,0.12,sens-2,DRSC02136
1.39,0.56,0.63,0.34,sens-2,DRSC02613
-0.67,-1.93,-1.6,-0.27,sens-2,DRSC21374
0.63,0.46,0.03,0.46,Shaw,DRSC00433
0.38,0.67,0.7,0.53,Shaw,DRSC00788
-0.46,0.25,0.14,-0.08,Shaw,DRSC21368
-0.75,-0.23,-0.03,-0.12,CG42566,DRSC03949
-1.94,-1.82,-0.66,-1.7,Surf1,DRSC11295
0.23,-0.54,-1.19,-0.04,Surf1,DRSC11394
0.82,0.66,0.39,0.1,CG42240,DRSC18097
0.67,0.09,0.25,0.56,Gba1a,DRSC21494
-0.05,0.5,-1.51,0.34,Dbp80,DRSC22034
